From the supplement of paper PMC7661543
The effect of the compound repeats well; differences between the knockouts mostly do not.

Test system: HCC-38
Assay: relative cell number vs DMSO control (72 h) (% of DMSO); higher = less growth inhibition (more cells)
Protocol: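 QMAP-Seq: a pool of 5 breast cancer cell lines (ZR-75-1, SKBR3, HCC-38, MDA-MB-231, BT-20), each carrying 12 doxycycline-inducible Cas9 sgRNA perturbations (11 knockouts plus non-targeting sgNT), was treated with compounds for 72 h at four 10-fold doses (10 nM-10 uM or 1 nM-1 uM range). Barcodes were amplified and sequenced, and cell number was interpolated from 293T spike-in standard curves. The result is expressed as % of the median of DMSO wells. Two biological replicates.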

C=C(C)[C@@H]1CC[C@]2(C(=O)O)CC[C@]3(C)[C@H](CC[C@@H]4[C@@]5(C)CC[C@H](O)C(C)(C)[C@@H]5CC[C@]43C)[C@@H]12 [BetulinicAcid]
Settings | relative cell number
sgRNA knockout: sgATF3, 10 nM | 104
sgRNA knockout: sgATF3, 100 nM | 85.6
sgRNA knockout: sgATF3, 1000 nM | 92.6
sgRNA knockout: sgATF3, 10000 nM | 95.4
sgRNA knockout: sgATF4, 10 nM | 100
sgRNA knockout: sgATF4, 100 nM | 83.1
sgRNA knockout: sgATF4, 1000 nM | 99.6
sgRNA knockout: sgATF4, 10000 nM | 86.2
sgRNA knockout: sgATF6, 10 nM | 112
sgRNA knockout: sgATF6, 100 nM | 91.22
sgRNA knockout: sgATF6, 1000 nM | 91.6
sgRNA knockout: sgATF6, 10000 nM | 110
sgRNA knockout: sgATG7, 10 nM | 92.4
sgRNA knockout: sgATG7, 100 nM | 88.3
sgRNA knockout: sgATG7, 1000 nM | 95.6
sgRNA knockout: sgATG7, 10000 nM | 93.8
sgRNA knockout: sgERN1, 10 nM | 107
sgRNA knockout: sgERN1, 100 nM | 89.6
sgRNA knockout: sgERN1, 1000 nM | 98.8
sgRNA knockout: sgERN1, 10000 nM | 98.4
sgRNA knockout: sgHSF1, 10 nM | 91.1
sgRNA knockout: sgHSF1, 100 nM | 91.9
sgRNA knockout: sgHSF1, 1000 nM | 79
sgRNA knockout: sgHSF1, 10000 nM | 105
sgRNA knockout: sgHSF2, 10 nM | 95
sgRNA knockout: sgHSF2, 100 nM | 96.3
sgRNA knockout: sgHSF2, 1000 nM | 83.9
sgRNA knockout: sgHSF2, 10000 nM | 92.6
sgRNA knockout: sgKEAP1, 10 nM | 86.6
sgRNA knockout: sgKEAP1, 100 nM | 95.3
sgRNA knockout: sgKEAP1, 1000 nM | 86.9
sgRNA knockout: sgKEAP1, 10000 nM | 79.6
sgRNA knockout: sgNFE2L2, 10 nM | 106
sgRNA knockout: sgNFE2L2, 100 nM | 78.4
sgRNA knockout: sgNFE2L2, 1000 nM | 106
sgRNA knockout: sgNFE2L2, 10000 nM | 87.3
sgRNA knockout: sgSLC35F2, 10 nM | 105
sgRNA knockout: sgSLC35F2, 100 nM | 83.3
sgRNA knockout: sgSLC35F2, 1000 nM | 99.7
sgRNA knockout: sgSLC35F2, 10000 nM | 97.1
sgRNA knockout: sgXBP1, 10 nM | 103
sgRNA knockout: sgXBP1, 100 nM | 82.4
sgRNA knockout: sgXBP1, 1000 nM | 98.7
sgRNA knockout: sgXBP1, 10000 nM | 91.8

C[C@]12CC[C@@H]3c4ccc(O)cc4C[C@@H](CCCCCCCCC[S+]([O-])CCCC(F)(F)C(F)(F)F)[C@H]3[C@@H]1CC[C@@H]2O (some centres not stated) [Fulvestrant]
Settings | relative cell number
sgRNA knockout: sgATF3, 10 nM | 98.7
sgRNA knockout: sgATF3, 100 nM | 103
sgRNA knockout: sgATF3, 1000 nM | 110
sgRNA knockout: sgATF3, 10000 nM | 92.1
sgRNA knockout: sgATF4, 10 nM | 88.1
sgRNA knockout: sgATF4, 100 nM | 101
sgRNA knockout: sgATF4, 1000 nM | 109
sgRNA knockout: sgATF4, 10000 nM | 93.1
sgRNA knockout: sgATF6, 10 nM | 93.2
sgRNA knockout: sgATF6, 100 nM | 85
sgRNA knockout: sgATF6, 1000 nM | 88.6
sgRNA knockout: sgATF6, 10000 nM | 108
sgRNA knockout: sgATG7, 10 nM | 81.4
sgRNA knockout: sgATG7, 100 nM | 92.3
sgRNA knockout: sgATG7, 1000 nM | 104
sgRNA knockout: sgATG7, 10000 nM | 97.8
sgRNA knockout: sgERN1, 10 nM | 85.4
sgRNA knockout: sgERN1, 100 nM | 108
sgRNA knockout: sgERN1, 1000 nM | 103
sgRNA knockout: sgERN1, 10000 nM | 94
sgRNA knockout: sgHSF1, 10 nM | 101
sgRNA knockout: sgHSF1, 100 nM | 95.54
sgRNA knockout: sgHSF1, 1000 nM | 97.8
sgRNA knockout: sgHSF1, 10000 nM | 111
sgRNA knockout: sgHSF2, 10 nM | 92.1
sgRNA knockout: sgHSF2, 100 nM | 97.8
sgRNA knockout: sgHSF2, 1000 nM | 112
sgRNA knockout: sgHSF2, 10000 nM | 106
sgRNA knockout: sgKEAP1, 10 nM | 102
sgRNA knockout: sgKEAP1, 100 nM | 98.5
sgRNA knockout: sgKEAP1, 1000 nM | 86.1
sgRNA knockout: sgKEAP1, 10000 nM | 98.52
sgRNA knockout: sgNFE2L2, 10 nM | 81.7
sgRNA knockout: sgNFE2L2, 100 nM | 107
sgRNA knockout: sgNFE2L2, 1000 nM | 108
sgRNA knockout: sgNFE2L2, 10000 nM | 83.9
sgRNA knockout: sgSLC35F2, 10 nM | 104
sgRNA knockout: sgSLC35F2, 100 nM | 93.3
sgRNA knockout: sgSLC35F2, 1000 nM | 103
sgRNA knockout: sgSLC35F2, 10000 nM | 88.6
sgRNA knockout: sgXBP1, 10 nM | 86.9
sgRNA knockout: sgXBP1, 100 nM | 106
sgRNA knockout: sgXBP1, 1000 nM | 106
sgRNA knockout: sgXBP1, 10000 nM | 88.6

CCn1c(=O)c2c(nc(/C=C/c3ccc(OC)c(OC)c3)n2C)n(CC)c1=O [Istradefylline]
Settings | relative cell number
sgRNA knockout: sgATF3, 10 nM | 89
sgRNA knockout: sgATF3, 100 nM | 90.8
sgRNA knockout: sgATF3, 1000 nM | 94.8
sgRNA knockout: sgATF3, 10000 nM | 100.6
sgRNA knockout: sgATF4, 10 nM | 82.67
sgRNA knockout: sgATF4, 100 nM | 97.2
sgRNA knockout: sgATF4, 1000 nM | 93.3
sgRNA knockout: sgATF4, 10000 nM | 99.6
sgRNA knockout: sgATF6, 10 nM | 89.3
sgRNA knockout: sgATF6, 100 nM | 109
sgRNA knockout: sgATF6, 1000 nM | 105
sgRNA knockout: sgATF6, 10000 nM | 99.2
sgRNA knockout: sgATG7, 10 nM | 83.8
sgRNA knockout: sgATG7, 100 nM | 96.4
sgRNA knockout: sgATG7, 1000 nM | 87.4
sgRNA knockout: sgATG7, 10000 nM | 98.6
sgRNA knockout: sgERN1, 10 nM | 83.1
sgRNA knockout: sgERN1, 100 nM | 98.8
sgRNA knockout: sgERN1, 1000 nM | 98.78
sgRNA knockout: sgERN1, 10000 nM | 97.4
sgRNA knockout: sgHSF1, 10 nM | 86.9
sgRNA knockout: sgHSF1, 100 nM | 101
sgRNA knockout: sgHSF1, 1000 nM | 111
sgRNA knockout: sgHSF1, 10000 nM | 115
sgRNA knockout: sgHSF2, 10 nM | 85.1
sgRNA knockout: sgHSF2, 100 nM | 102
sgRNA knockout: sgHSF2, 1000 nM | 100
sgRNA knockout: sgHSF2, 10000 nM | 99.7
sgRNA knockout: sgKEAP1, 10 nM | 85.8
sgRNA knockout: sgKEAP1, 100 nM | 91.5
sgRNA knockout: sgKEAP1, 1000 nM | 97.6
sgRNA knockout: sgKEAP1, 10000 nM | 114
sgRNA knockout: sgNFE2L2, 10 nM | 89.7
sgRNA knockout: sgNFE2L2, 100 nM | 94.8
sgRNA knockout: sgNFE2L2, 1000 nM | 87.2
sgRNA knockout: sgNFE2L2, 10000 nM | 93.7
sgRNA knockout: sgSLC35F2, 10 nM | 85.5
sgRNA knockout: sgSLC35F2, 100 nM | 94.6
sgRNA knockout: sgSLC35F2, 1000 nM | 88.1
sgRNA knockout: sgSLC35F2, 10000 nM | 109
sgRNA knockout: sgXBP1, 10 nM | 87.4
sgRNA knockout: sgXBP1, 100 nM | 92.5
sgRNA knockout: sgXBP1, 1000 nM | 87.5
sgRNA knockout: sgXBP1, 10000 nM | 103
